In EP4790069A1 (Kyoto University, dated 2026):
Results are given in words; binding and its absence hold for the method and conditions named. Some entries that bind do so weakly or less than the wild type.

Assays:
canine CD153 (canine) [1] = target: T1, canine CD153 (canine) (UniProt E2R8I1); test: flow cytometry on cells expressing CD153
T1 sequence: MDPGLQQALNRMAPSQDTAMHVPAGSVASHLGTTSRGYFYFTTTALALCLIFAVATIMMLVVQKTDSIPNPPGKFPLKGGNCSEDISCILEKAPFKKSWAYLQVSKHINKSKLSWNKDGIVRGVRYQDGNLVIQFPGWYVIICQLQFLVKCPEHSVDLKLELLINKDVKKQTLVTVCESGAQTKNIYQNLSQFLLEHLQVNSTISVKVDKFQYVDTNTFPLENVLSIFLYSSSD

feline CD153 (feline) [2] = target: T2, feline CD153 (feline); test: flow cytometry on cells expressing CD153
T2 sequence: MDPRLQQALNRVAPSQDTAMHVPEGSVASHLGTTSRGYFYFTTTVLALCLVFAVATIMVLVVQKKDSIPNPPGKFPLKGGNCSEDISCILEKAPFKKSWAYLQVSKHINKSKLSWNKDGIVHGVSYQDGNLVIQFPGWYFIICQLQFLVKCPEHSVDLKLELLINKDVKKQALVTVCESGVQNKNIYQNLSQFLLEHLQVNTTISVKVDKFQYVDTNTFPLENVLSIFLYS

canine CD153 (canine) [3] = target: T1, canine CD153 (canine); test: flow cytometry on 293T cells transfected with canine CD153 (AcGFP1-positive fraction)
feline CD153 (feline) [4] = target: T2, feline CD153 (feline); test: flow cytometry on 293T cells transfected with feline CD153 (AcGFP1-positive fraction)

Measured: binding

B1: anti-human CD153 monoclonal antibody 2H7-9 (antibody, V domains shown)
VH: RVQLQQSGAELVRPGTSVKISCKASGYAFTNYWLGWVKQRPGHGLEWIGDIYPGNYNSYSNEKFKGKATLTADESSSTAYMQLSSLTSEDSAVYFCARIYGNYWIFDVWGAGTTVTVSS
VL: QIVLTQSPAIMSASPGEKVTMTCSASSSVNYMHWFQQKPGTSPKLWIYSTSDLASGVPARFSGSGSGTSYSLTISRMEAEDAATYYCQQRSSYPLTFGAGTKLELK
notes: Mouse hybridoma antibody (CD153-KO B6 mouse), purified with Protein A and detected with anti-mouse IgG
binds: all assays above
